Data reported in PubChem BioAssay AID504467 (National Center for Advancing Translational Sciences (NCATS), 2011).
The campaign covered roughly 330,000 compounds. About 7,700 (2.3%) were called active. The inconclusive results got no clear call from the source; some entries with a clear call stand among them for comparison. Calls follow the shape of the dose curve; as a rule, active = well fitted inhibition curve with a large enough effect; inconclusive = small, poorly fitted or top-dose-only effect, or effect the other way; inactive = flat fitted curve, though single readings scatter. Where the call is inconclusive, the potency comes from a doubtful curve fit.

assay: qHTS screen for small molecules that inhibit ELG1-dependent DNA repair in human embryonic kidney (HEK293T) cells expressing luciferase-tagged ELG1; details: HEK293T ELG1-luciferase reporter, luminescence, 16 h, DNA damage induced by 5-fluorouridine; series mostly up to 46.1 µM; also: nearly all actives have a fitted effect of over 55% in size
In short: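 Quantitative HTS, concentration-response format. 2,000 cells/well co-treated with 5-fluorouridine and compound, 16 hr in 5% CO2 at 37 °C; ONE-Glo luminescence read after 30 min.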
Potency is read from the fitted curve at half-maximal effect.

Row | SMILES | Potency
1 | COc1cc(OC)cc(-c2c(-c3cccs3)c3cc(-c4ccc(OCc5ccccc5)cc4)ccc3n2C)c1 | inconclusive: 29.1 µM [activator, single point]
2 | c1cc2c(cc1C1=NNC(=NC3CC3)SC1)OCCO2 | inconclusive: 0.082 µM [activator, full curve, poor fit]
3 | O=C(Cc1ccc(-n2cccc2)cc1)NCc1cccs1 | inactive
4 | COc1ccc(-n2ncc3c(Nc4cccc(C)c4)ncnc32)cc1 | inconclusive: 6.51 µM [activator, partial curve]
5 | COc1cccc(C(=O)Nc2ccc(NC(=O)C(C)(C)C)cn2)c1 | inconclusive: 0.794 µM [activator, full curve, poor fit]
6 | Cc1cc(NC(=O)c2ccc(F)cc2)n(CCOC(=O)c2ccc(F)cc2)n1 | inconclusive: 18.4 µM [inhibitor, single point]
7 | CCc1nnc(NC(=O)CCC(=O)NCc2ccccc2Cl)s1 | inconclusive: 16.4 µM [activator, partial curve, poor fit]
8 | COc1ccc(-n2c(SCC(=O)Nc3sc4c(c3C#N)CCCC4)nnc2-c2ccccc2OC)cc1 | active: 25.9 µM
9 | O=C(O)c1c2c(nc3ccccc13)/C(=C/c1ccc(O)cc1)CC2 | inconclusive: 8.2 µM [activator, partial curve]
10 | O=C(OCC(=O)N1CCc2ccccc21)c1cccnc1Cl | inconclusive: 20.6 µM [activator, partial curve]
11 | N#Cc1c(-c2ccccc2)nc(SCc2cccc(Cl)c2)[nH]c1=O | inactive
12 | CCOc1ccccc1NC(=O)c1cc2ccccc2oc1=O | inactive
13 | CCOC(=O)Cn1ncc2c3ccccc3n(CC(=O)OCC)c2c1=O | inactive
14 | Cc1ccc(NC(=O)CN2C(=O)CCSc3ccc(S(=O)(=O)N4CCCC4)cc32)cc1C | inconclusive: 13 µM [inhibitor, partial curve]
15 | COc1ccc(-c2cc(=O)oc3cc(O)ccc23)cc1 | inconclusive: 11.6 µM [inhibitor, partial curve]
16 | O=C1C(Br)=Cc2cccc3cccc1c23 | inconclusive: 23.1 µM [activator, partial curve]
17 | COc1ccc(CN2CCNC(=O)C2CC(=O)NCCN2CCCCC2=O)c(F)c1 (stereo not given) | inactive
18 | CCOc1cccc(/C=N/NS(=O)(=O)c2ccc(C)c([N+](=O)[O-])c2)c1O | inactive
19 | O=C(NCC(=O)N1CCN(c2ccccc2O)CC1)c1ccccc1 | inconclusive: 29.1 µM [activator, single point]
20 | COc1ccc(-n2nc(C)c3c(=O)c4c([nH]c32)CCCC4)cc1 | inactive
21 | O=C(NC(=S)Nc1cccc(S(=O)(=O)NC2=NCCC2)c1)c1cc(-c2ccco2)nc2ccccc12 | inconclusive: 4.11 µM [inhibitor, partial curve, poor fit]
22 | CC(C)=NOC(=O)c1ccc(-c2ccccc2)cc1 | inactive
23 | Cc1ccc(S(=O)(=O)NCCCCCC(=O)Nc2cccc(C)c2)cc1 | inconclusive: 29.1 µM [inhibitor, single point]

In a second layout: entries from further up.
Row	SMILES	Potency
19	O=C(NCC(=O)N1CCN(c2ccccc2O)CC1)c1ccccc1	inconclusive: 29.1 µM [activator, single point]
20	COc1ccc(-n2nc(C)c3c(=O)c4c([nH]c32)CCCC4)cc1	inactive

(continued)

Row | SMILES | Potency
24 | Cc1cc(SCC(=O)Nc2ccccc2)n2ncc(-c3ccccc3)c2n1 | inactive
25 | COc1cc2c(=O)n(CC3CCCO3)c(=O)n(CC(=O)Nc3cccc(Cl)c3)c2cc1OC (stereo not given) | inconclusive: 13 µM [inhibitor, partial curve]
26 | O=C(NCc1ccccn1)/C(=N/O)c1ccccc1 | inconclusive: 18.4 µM [activator, partial curve]
27 | O=C(Nc1ccccc1)/C(=C1\CCCN1)[N+](=O)[O-] | inconclusive: 16.4 µM [activator, partial curve]
28 | CC1CC(C)CN(c2ccc([N+](=O)[O-])nc2)C1 (stereo not given) | inconclusive: 25.9 µM [activator, single point]
29 | Cc1nn2c(N3CCN(C(=O)c4ccco4)CC3)cc(C(C)(C)C)nc2c1-c1ccccc1 | inactive
30 | Cn1cccc1/C=N/NC(=O)c1cccs1 | inconclusive: 16.4 µM [activator, partial curve]
31 | C=CCN1C(=O)CSC1=Nc1ccc(NC(C)=O)cc1 | inactive
32 | CS(=O)(=O)c1nc(S(=O)(=O)c2ccc(Cl)cc2)c(NCCCN2CCCC2=O)s1 | inconclusive: 18.3 µM [activator, partial curve, poor fit]
33 | CC1=C(C(=O)Nc2nc3ccccc3s2)C(c2ccco2)C(C#N)=C(SCC(=O)NC2CCCCC2)N1 (stereo not given) | inconclusive: 25.9 µM [inhibitor, single point]
34 | COc1ccc(CN(C)CC(=O)Nc2ccc(SC(F)F)cc2)cc1OC | inconclusive: 29.1 µM [inhibitor, single point]
35 | CCN(CC)c1ccc(/C=N/Nc2nc(C)cc(=O)[nH]2)c(O)c1 | inconclusive: 2.31 µM [inhibitor, partial curve]
36 | COc1ccc(C(=O)NC(C)CCc2ccccc2)c(OC)c1 (stereo not given) | inconclusive: 1.3 µM [activator, full curve, poor fit]
37 | O=C(NCc1ccc(F)cc1)C(=O)NCC(c1ccco1)N1CCOCC1 (stereo not given) | inactive
38 | O=C(Cc1ccc(Br)cc1)NC1CCCc2ccccc21 (stereo not given) | inactive
39 | O=C(NCc1ccccc1)C(c1ccccc1F)N(C(=O)c1csnn1)C1CCCC1 (stereo not given) | inactive
40 | C=CCN1CC(=O)N2C(C)c3[nH]c4ccccc4c3C[C@H]2C1=O (stereo not given in full) | inactive
41 | O=C1CCC([N+](=O)[O-])C(c2cccc([N+](=O)[O-])c2)N1 (stereo not given) | inconclusive: 11.6 µM [inhibitor, partial curve]
42 | CCOC(=O)C1=c2/c(=C/c3ccccc3OC)c(N)c(C#N)n2C(=O)C(c2ccccc2OC)S1 (stereo not given) | inconclusive: 2.91 µM [inhibitor, partial curve, poor fit]
43 | CC(C)(C)c1ccc(C(=O)C=[N+]=[N-])cc1 | inconclusive: 16.4 µM [activator, partial curve, poor fit]
44 | CCCc1cc(=O)oc2c3c(cc(OCC(=O)NCc4ccncc4)c12)OC(C)(C)CC3 | inconclusive: 29.1 µM [inhibitor, single point]
45 | O=C(CN1C(=O)NC2(CCOc3ccccc32)C1=O)c1cccs1 (stereo not given) | inconclusive: 20.6 µM [activator, partial curve, poor fit]

2 compounds picked at random from the list so far, as already listed:
Row | SMILES | Potency
31 | C=CCN1C(=O)CSC1=Nc1ccc(NC(C)=O)cc1 | inactive
26 | O=C(NCc1ccccn1)/C(=N/O)c1ccccc1 | inconclusive: 18.4 µM [activator, partial curve]
